Test results taken from article PMC4822136.
No constants are given. Whether binding was seen depends on the method and setting. Binding seen in cells or lysates may run through a third protein. Some results given as binding are weak or reduced against the parent protein; the word gives no strength. Tags and fused reporters may be left off the sequences shown.

The chains behind the UniProt entries cited, without tags or fusion partners.
UniProt P05412: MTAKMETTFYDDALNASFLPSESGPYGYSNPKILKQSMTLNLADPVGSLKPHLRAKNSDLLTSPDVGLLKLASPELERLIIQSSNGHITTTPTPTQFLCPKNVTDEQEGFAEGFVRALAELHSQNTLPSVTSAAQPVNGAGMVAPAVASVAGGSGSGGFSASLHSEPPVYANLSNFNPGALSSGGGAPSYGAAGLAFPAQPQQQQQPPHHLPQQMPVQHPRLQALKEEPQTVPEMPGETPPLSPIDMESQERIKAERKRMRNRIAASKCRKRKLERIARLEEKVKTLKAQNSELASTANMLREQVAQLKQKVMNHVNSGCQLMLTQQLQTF

T1: Flag-tagged TRIM69 (human) (UniProt Q86WT6)
T1 sequence: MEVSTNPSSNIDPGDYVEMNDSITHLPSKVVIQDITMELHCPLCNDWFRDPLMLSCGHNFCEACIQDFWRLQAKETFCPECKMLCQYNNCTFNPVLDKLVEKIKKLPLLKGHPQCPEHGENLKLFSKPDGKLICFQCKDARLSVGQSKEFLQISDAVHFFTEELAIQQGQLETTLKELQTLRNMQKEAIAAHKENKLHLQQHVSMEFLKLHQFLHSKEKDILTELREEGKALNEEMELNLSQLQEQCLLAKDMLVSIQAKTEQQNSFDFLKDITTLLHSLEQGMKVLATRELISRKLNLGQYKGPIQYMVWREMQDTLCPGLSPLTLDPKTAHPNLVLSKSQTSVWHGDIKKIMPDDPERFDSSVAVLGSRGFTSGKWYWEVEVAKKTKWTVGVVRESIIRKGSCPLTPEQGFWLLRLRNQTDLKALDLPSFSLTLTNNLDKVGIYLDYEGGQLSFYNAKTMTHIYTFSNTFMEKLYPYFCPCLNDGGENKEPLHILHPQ

B1: Flag-tagged TRIM69 (protein, UniProt Q86WT6 1-500)
chain: T1 sequence

How the values were obtained:
[1] = molecular target: T1, Flag-tagged TRIM69 (human); test: co-IP; HEK293T cells co-transfected with Flag-TRIM69 and HA-c-Jun; lysed in NETN buffer 48 h after transfection; complexes isolated with anti-Flag beads (M2) or, in the reverse experiment, anti-HA beads; immunoblot
[2] = molecular target: HA-tagged c-Jun (UniProt P05412); test: as above

| Molecule | binding [1] | binding [2] |
| --- | --- | --- |
| HA-tagged c-Jun (from UniProt P05412 1-331) | binds | – |
| B1 | – | binds |
